# Assay results taken from patent US10264976B2, “Biocompatible flavonoid compounds for organelle and cell imaging” (The University of Akron, priority 2015, dated 2019).
# Some results were stated once for a whole list of compounds, not compound by compound.
# What was measured:
# hMSCs = test: Cell staining efficiency without washing process; format: cell-based, human; conditions: for S/N ratio in fluorescent images: blue channel, without washing; for time to stain living cells: without washing process
# Method: To assess their cell staining efficiencies, the hMSCs cells were incubated with MT, MC-Mito1 and MC-Mito2, respectively. Cell staining was continuously recorded in 3 min, 10 min and 25 min without washing process. It was found MC-Mito1 and MC-Mito2 quickly stained the living cells in 10 mins. In contrast, the MT acquired longer time to efficiently stain cells. The fluorescence signal of MC-Mito1 and MC-Mito2 from the ‘blue channel’ on fluorescence microscope (420-470 nm) were confined in cells with a negligible background signal from the culture medium, supporting the hypothesis that the flavone dyes gave higher emission in low-polar environment. Generally, the S/N ratios in fluorescent images were above 3, which could be considered acceptable for the discrimination of mitochondria. Therefore, this wash-free method could be a useful probe for real-time monitor of mitochondrial changes.
# Human mesenchymal stem cells (hMSCs) (Lonza, Walkersville, Md.) were cultured in serum-containing MSCBM medium (Lonza) supplemented with MSCGM SingleQuots (Lonza) according to manufacturer's specifications. hMSCs (Passage 5) were seeded at a density of 5.0×10^4 cell/cm^2. For co-staining experiments, the hMSCs were seeded on 12-well plate, cultured in MSCBM medium (Lonza) supplemented with MSCGM SingleQuots (Lonza), and incubated with 5 μM MC and 25 nM Mitotracker® red CMXRos (MT), 5 μM MC-Br and 25 nM MT, 5 μM MC-Mito1 and 25 nM MT, 5 μM MC-Mito2 and 25 nM MT for 25 min at 37° C., respectively. Each well contains 1 ml of medium and 0.05 ml DMSO (dissolving probe). The cell imaging was obtained on a Zeiss inverted fluorescence microscopy with X-Cite Series 120Q. The blue channel filter: excitation 365 nm, beam splitter FT 395 nm, emission 445/50 nm. The green channel filter: excitation 450-490 nm, beam splitter FT 510 nm, emission 515-565 nm. The red channel filter: excitation 587/25 nm, beam splitter FT 605 nm, emission 647/70 nm.
# [1] = Fluorescence quantum yield (rhodamine 6G standard); format: physicochemical; conditions: in water
# Description: The fluorescence quantum yields were obtained using rhodamine 6G (sigma) as the standard (Φfl=0.95, ethanol). The fluorescence quantum yields can be calculated by using the following Eq: Φs=Φr×(Ar×ns^2×Fs)/(As×nr^2×Fr) where the subscripts s and r refer to the sample and the standard, respectively. Φ is the quantum yield, F is the integrated emission intensity, A is the absorbance, and n is the refractive index. Zebrafish Breeding and Imaging
# zebrafish embryos = test: Wash-free fluorescence imaging of zebrafish embryos; format: in vivo, Zebrafish (Danio rerio); conditions: embryos 4 hours post fertilization, 5 μM, 15 min, no washing
structure (smiles),measurement,setting,value
"O=c1c(OCCC[P+](c2ccccc2)(c2ccccc2)c2ccccc2)c(-c2ccc(N3CCOCC3)cc2)oc2ccccc12.[Br-] [MC-Mito1, (3-(2-(4-morpholinophenyl)-4-oxo-4H-chromen-3-yloxy)propyl)triphenylphosphonium bromide]",S/N ratio in fluorescent images,hMSCs,above 3
same,time to stain living cells,hMSCs,≤ 10 min
same,fluorescence quantum yield (QY),[1],< 1%
same,signal-to-noise ratio,zebrafish embryos,> 10
"O=c1c(OCCCCCC[P+](c2ccccc2)(c2ccccc2)c2ccccc2)c(-c2ccc(N3CCOCC3)cc2)oc2ccccc12.[Br-] [MC-Mito2, (6-(2-(4-morpholinophenyl)-4-oxo-4H-chromen-3-yloxy)hexyl)triphenylphosphonium bromide]",S/N ratio in fluorescent images,hMSCs,above 3
same,time to stain living cells,hMSCs,≤ 10 min
same,fluorescence quantum yield (QY),[1],< 1%
same,signal-to-noise ratio,zebrafish embryos,> 10
